Assay results published in PubChem BioAssay AID540276 (National Center for Advancing Translational Sciences (NCATS), 2011).
Out of some 300,000 compounds screened, about 5,400 (1.8%) were called active. This list was built around the results that the source calls inconclusive (neither active nor inactive); the mix of calls is not that of the screen. Calls follow the shape of the full dose curve; tested in HEK293 cells. A potency beside an inconclusive call is a rough fit, not a confirmed value.

test: qHTS for inhibitors of binding or entry into cells for Marburg Virus; conditions: Marburg virus pseudotyped entry inhibition, cell reporter; series mostly up to 37.8 µM
Potency is read from the fitted curve at half-maximal effect.

SMILES	Potency
Cc1[nH]n(-c2ccc([N+](=O)[O-])cc2)c(=O)c1C=NCCN1CCN(C(=O)c2ccccc2)CC1	inconclusive: 5.8 µM [inhibitor, single point]
CCN(CCNC(=O)C1CCCN(Cc2nc(-c3ccc(OC)cc3)oc2C)C1)c1ccccc1 (configuration not stated)	inconclusive: 29.1 µM [inhibitor, single point]
CCCCn1c(=O)c(C=Nc2cc([N+](=O)[O-])ccc2OC)c(O)n(CCCCl)c1=O	inactive
O=C(NCCSc1c(-c2ccc(Cl)cc2)[nH]c2ccccc12)c1ccc(S(=O)(=O)N2CCOCC2)cc1	inactive
Cc1ccc(NS(=O)(=O)c2ccc3[nH]c(=O)oc3c2)cc1Cl	inconclusive: 0.891 µM [inhibitor, partial curve, poor fit]
O=C(CNc1c(Br)cc(Br)cc1Br)NN=C1CCCCC1	inactive
Cc1ccc2nc(C)n(-c3ccc(F)cc3)c(=O)c2c1	inconclusive: 1.58 µM [activator, partial curve, poor fit]
COc1ccc(C(=O)NCc2nnc(SCC(=O)c3ccccc3)n2C)cc1OC	inconclusive: 0.355 µM [inhibitor, partial curve, poor fit]
Cc1ccc(NC(=O)/C=C/c2ccc3c(c2)OCO3)cc1S(=O)(=O)N1CCOCC1	inconclusive: 32.6 µM [inhibitor, single point]
O=C(CNC(=O)c1ccccc1)OC(C(=O)c1ccccc1)c1ccccc1 (configuration not stated)	inactive
CC1=CN2C(=N)/C(=C/c3ccc(C)o3)C(=O)N=C2S1	inactive
COc1ccccc1NC(=O)Nc1ccc(-n2ccc(C(F)(F)F)n2)cc1	inconclusive: 2.82 µM [activator, partial curve, poor fit]
COc1ccc(C(=O)Nc2nc3ccccc3s2)c(OC)c1	inconclusive: 2.24 µM [inhibitor, full curve, poor fit]
Cc1ccc(NC(=O)CCNC(=O)c2ccc([N+](=O)[O-])cc2)cc1S(=O)(=O)N(C)C	active: 10 µM
Nc1ccccc1NC(=O)NC(=O)c1ccccc1	inconclusive: 1 µM [activator, single point]
Cc1cccc(C(=O)NNC(=O)c2ccc(Cl)cc2)c1O	inconclusive: 3.16 µM [activator, partial curve, poor fit]
CCOC(=O)c1c(C)n(C(C)C)c2ccc(OC(=O)c3ccc(N4C(=O)CCC4=O)cc3)cc12	inconclusive: 5.62 µM [inhibitor, single point]
COc1cccc(Nc2c(F)c(OC)c(F)c(F)c2C(=O)O)c1	inconclusive: 31.6 µM [activator, single point]
Cc1nc2cc(C(=O)NCc3ccc4c(c3)OCO4)ccc2n1-c1ccc(Br)cc1	inconclusive: 2 µM [activator, single point]
CC(C)C(=O)Nc1ccc2c(c1)C(=O)NC2=O	inconclusive: 31.6 µM [activator, single point]
Cc1sc(NC(=O)CSc2nc(N)n(CC(=O)c3ccccc3)n2)c(C#N)c1C	inconclusive: 13 µM [inhibitor, partial curve, poor fit]

An excerpt of these results, bar-delimited.
SMILES | Potency
Cc1[nH]n(-c2ccc([N+](=O)[O-])cc2)c(=O)c1C=NCCN1CCN(C(=O)c2ccccc2)CC1 | inconclusive: 5.8 µM [inhibitor, single point]
CCCCn1c(=O)c(C=Nc2cc([N+](=O)[O-])ccc2OC)c(O)n(CCCCl)c1=O | inactive
O=C(NCCSc1c(-c2ccc(Cl)cc2)[nH]c2ccccc12)c1ccc(S(=O)(=O)N2CCOCC2)cc1 | inactive
O=C(CNc1c(Br)cc(Br)cc1Br)NN=C1CCCCC1 | inactive
COc1ccc(C(=O)NCc2nnc(SCC(=O)c3ccccc3)n2C)cc1OC | inconclusive: 0.355 µM [inhibitor, partial curve, poor fit]
COc1ccccc1NC(=O)Nc1ccc(-n2ccc(C(F)(F)F)n2)cc1 | inconclusive: 2.82 µM [activator, partial curve, poor fit]
COc1cccc(Nc2c(F)c(OC)c(F)c(F)c2C(=O)O)c1 | inconclusive: 31.6 µM [activator, single point]
Cc1sc(NC(=O)CSc2nc(N)n(CC(=O)c3ccccc3)n2)c(C#N)c1C | inconclusive: 13 µM [inhibitor, partial curve, poor fit]

Continuation.

SMILES	Potency
COC(=O)c1ccccc1C(=O)N1CCOCCN(C(=O)c2ccccc2C(=O)OC)CCOCC1	inactive
CCCCN(CCCC)C(=O)c1cc2c(=O)n3ccccc3nc2s1	inactive
CCCC1C2CN(C(C)C)CC=C2C(C#N)=C(N)C1(C#N)C#N (configuration not stated)	inconclusive: 0.0517 µM [inhibitor, full curve, poor fit]
O=S(=O)(Nc1ccc(Cl)cc1)c1ccc2c(c1)CCO2	inconclusive: 11.2 µM [inhibitor, single point]
Cc1ccc(C(=O)N/C(=C\c2ccc(-c3ccccc3[N+](=O)[O-])o2)C(=O)NCCCN2CCOCC2)cc1	inconclusive: 7.94 µM [inhibitor, partial curve, poor fit]
O=C1/C(=C/c2ccncc2)SC(=S)N1Nc1ccccc1	inconclusive: 7.94 µM [inhibitor, partial curve, poor fit]
CCn1ncc(C2=NOC(C(=O)NCc3ccc(OC)cc3)C2)c1C (configuration not stated)	inconclusive: 9.2 µM [inhibitor, partial curve, poor fit]
Nc1cc(Cl)ccc1N1CCCCCC1	inactive
CSc1ncccc1C(=O)Nc1cc(Cl)ccc1N1CCOCC1	inactive
CCOc1ccc(Cc2nc(N)nc(N)n2)cc1	inactive
Cc1ccc(NC(=O)CN(C)C(=O)c2cc(C)on2)cc1	inconclusive: 35.5 µM [inhibitor, single point]
O=C(CNC(=O)c1ccccc1)N/N=C/c1cc(Br)ccc1O	inconclusive: 25.1 µM [inhibitor, partial curve, poor fit]
N#C/C(=C\c1ccc[nH]1)C(=O)NCC1CCCO1 (configuration not stated)	inconclusive: 35.5 µM [activator, single point]
CC(C)C(c1nnnn1Cc1ccco1)N1CCN(c2cccc(Cl)c2)CC1 (configuration not stated)	inconclusive: 35.5 µM [inhibitor, partial curve, poor fit]
Cc1cccc(N2CCN(C(c3ccc(F)cc3)c3nnc(-c4ccccc4)o3)CC2)c1C (configuration not stated)	inconclusive: 10 µM [inhibitor, partial curve, poor fit]
COc1ccc(-n2nc(C(=O)NCC(=O)N3CCN(Cc4ccccc4)CC3)c3ccccc3c2=O)cc1OC	inconclusive: 6.31 µM [inhibitor, full curve, poor fit]
CC1CCc2c(sc(NC(=O)C3CCCO3)c2C#N)C1 (configuration not stated)	inactive
COc1ccc(N2CCc3c(C)nc(SC)nc32)cc1	inconclusive: 1.12 µM [inhibitor, partial curve, poor fit]
COc1cc(NC(=O)Cn2ccsc2=N)c(C)cc1[N+](=O)[O-]	inconclusive: 11.6 µM [inhibitor, partial curve, poor fit]
C[n+]1ccc(-c2ccncc2)cc1	inconclusive: 1.16 µM [inhibitor, single point]
Cc1ccc(CCNC(=O)C2CCN(S(=O)(=O)c3cccc4cccnc34)CC2)cc1	inconclusive: 0.631 µM [activator, full curve, poor fit]
